Data from PubChem BioAssay AID2685 (National Center for Advancing Translational Sciences (NCATS), 2010).
Some of the results follow. These are further read-outs of the screen, such as a control signal, another cell line or another target. No call is given for them. Compounds called inactive in the main read-out are mostly missing here. The note in brackets gives the kind of curve behind each potency; many fits are weak.

Experiment: qHTS Assay for Lipid Storage Modulators in Drosophila S3 Cells;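 on cell number change: cells counted by Cell Tracker Red CMTPX staining in the red channel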
Details: BODIPY lipid droplet fluorescence, 18-24 h; for cell number change: measured here: cell count max response, cells fed with added oleic acid
In short: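 Drosophila S3 cells loaded with oleic acid (400 uM, as added) and compounds at several concentrations; lipid droplets imaged by 488-nm laser-scanning cytometry, 500–530 nm intensity and object ratio to cell channel. Percent activity normalized to 20 uM Triacsin C.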

[1] = measured here: lipid fluorescence (Fed channel) AC50, cells fed with added oleic acid
[2] = measured here: cell number channel AC50, cells fed with added oleic acid

SMILES | AC50 [1] | cell number change [%] | AC50 [2]
COc1ccc(S(=O)CC(=O)Nc2ccccc2Cl)cc1 (centres undefined) | 4.61 µM [falling, partial curve] |  | 
O=C(COC(=O)/C=C/c1cccc(C(F)(F)F)c1)NCCN1C(=O)CSC1=O | 0.366 µM [falling, partial curve] | -11 | 
O=C(COc1ccc(Cl)cc1)NCCCNC(=O)c1cnccn1 | 29.1 µM [rising, single point] | 15.4 | 
Clc1ccc(-c2csc3ncnc(NCCN4CCOCC4)c23)cc1 |  | 69.7 | 18.4 µM [rising, partial curve]
COc1cc(/C=C/c2ccc(O)cc2)cc(OC)c1 | 13 µM [falling, partial curve] | -59.1 | 14.6 µM [falling, partial curve]
CCOc1ccc(NS(=O)(=O)c2ccc(C(=O)N(C)CC(=O)Nc3ccc(C)cc3)cc2)cc1 |  | -45.5 | 16.4 µM [falling, partial curve, poor fit]
O=C(CC1(O)C(=O)Nc2ccccc21)c1ccc2c(c1)OCO2 (centres undefined) | 18.4 µM [falling, partial curve] | -10.9 | 
CC1CCN(CCCNC(=O)c2cn(C)c3ccc(S(=O)(=O)N4CCCC4)cc3c2=O)CC1 |  | -70.8 | 29.1 µM [falling, single point]
CCC(C)[C@H](NC(=O)NCc1ccccc1)C(=O)O (some centres undefined) | 29.1 µM [falling, single point] | -33.4 | 0.13 µM [falling, full curve, poor fit]
COCCCNCCOCCOc1c(OC)cccc1OC |  | 6.53 | 
COC(=O)c1[nH]c2ccc(C)cc2c1NC(=O)c1ccccc1[N+](=O)[O-] |  | 47.5 | 29.1 µM [rising, single point]
CN(C)C1=NC[C@H](Cc2ccccc2)N1CC1CCCCC1 | 8.2 µM [rising, partial curve, poor fit] | -0.765 | 
O=C(O)c1ccnc2c(O)cccc12 | 1.64 µM [rising, partial curve] | 16 | 
COCC(C)NC(=O)c1cc(-c2ccccc2OC)on1 (centres undefined) | 29.1 µM [rising, single point] | -8.14 | 
O=C(NCC(c1cccs1)N1CCOCC1)c1cn(-c2ccccc2)nc1-c1ccc(F)cc1 (centres undefined) |  | 75.8 | 5.8 µM [rising, full curve, poor fit]
COc1cc(OC)cc(C(=O)N2c3ccc(F)cc3CCC2C)c1 (centres undefined) |  |  | 2.91 µM [rising, single point]
CCSc1ccc(-c2nn(-c3ccccc3)cc2/C=C(/C#N)C(=O)NC)cc1 | 1.64 µM [falling, full curve] | -32.5 | 1.46 µM [falling, full curve]
CCOC(=O)c1ncn2c1CN(C)C(=O)c1cc(F)ccc1-2 | 29.1 µM [rising, single point] |  | 
Cc1cccc(NC(=O)NC2CCCCCCC2)c1 | 29.1 µM [falling, single point] | -22.3 | 
O=C(/C=C/c1c(F)cccc1Cl)Nc1ncccn1 | 6.51 µM [rising, single point] | -0.503 | 2.91 µM [rising, single point]

SMILES | AC50 [1] | cell number change [%] | AC50 [2]
Cc1cc(C)cc(NC(=O)c2cc(S(=O)(=O)N3CCCC3)cn2C)c1 | 23.1 µM [falling, single point] | -3.46 | 
CC(C)N(C(=O)CC1ON(C)C(=O)N1c1ccc(Cl)cc1)C(C)C (centres undefined) | 18.4 µM [rising, single point] | 22.9 | 
CCOC(=O)c1[nH]c2ccc(OCC)cc2c1NC(=O)CN1CCN(c2ccccn2)CC1 | 18.4 µM [rising, partial curve, poor fit] | -5.75 | 
CCOC(=O)N1CCN(C(=O)CCn2nc(-c3ccc(Cl)cc3)ccc2=O)CC1 | 29.1 µM [falling, single point] | -15.2 | 
Cc1nc(CC(=O)c2c(C)cc(O)cc2O)cs1 | 0.0259 µM [falling, full curve, poor fit] | -39.3 | 29.1 µM [falling, partial curve, poor fit]
COc1ccc2c(c1)oc(=O)c1c3ccccc3[nH]c21 |  | -6.43 | 
C#CCOC(=O)Nc1cccn(Cc2c(Cl)cccc2Cl)c1=O |  | 13.9 | 
Cc1ccc(NC(=S)N(CCCN2CCOCC2)Cc2ccccn2)cc1 |  | 12 | 
Nc1c(N(Cc2ccco2)C(=O)c2ccccc2F)c(=O)[nH]c(=O)n1Cc1ccccc1 | 6.51 µM [rising, single point] | -11.6 | 
Cc1ccccc1OCC(=O)NC(=S)Nc1ccc(N2CCOCC2)c(Cl)c1 | 0.00461 µM [falling, full curve, poor fit] |  | 
COc1cc(OC)c(C2=NOC(C(=O)NCCc3ccccc3)C2)cc1Cl (centres undefined) | 0.82 µM [rising, single point] |  | 
CC(C)COP(=O)(c1ccc(N(C)C)cc1)C(Nc1ccccc1)c1ccccc1 (centres undefined) | 14.6 µM [falling, single point] | -16.4 | 
FC(F)(F)c1cccc(CN2CCCCCC2)c1 | 1.16 µM [falling, full curve] | -11.6 | 
C#CCOCCOCCOCCNc1nc(N2CCN(C(=O)Cn3cc(CCCCN)nn3)CC2)nc(N2CCN(C(=O)[C@H]([C@@H](C)CC)n3cc(CCCCN)nn3)CC2)n1 |  | -13.7 | 
Cc1ccc(NC(=O)COC(=O)[C@@H]2CCCN2C(=O)c2cccs2)cc1S(=O)(=O)N(C)C | 0.58 µM [rising, full curve] | 10.6 | 
COc1ccccc1-c1nc(SCC(=O)N(C)c2ccccc2)c2c(=O)n(C)c(=O)n(C)c2n1 |  | -37.4 | 0.116 µM [falling, full curve, poor fit]
CSc1ccc(/C=N/n2c(COc3ccccc3)n[nH]c2=S)cc1 | 0.58 µM [falling, single point] |  | 
CCc1nnc(NC(=O)Cc2cc(OC)c(OC)c(OC)c2)s1 | 20.6 µM [rising, partial curve] | 31 | 2.59 µM [rising, full curve]
Oc1ccc(N=Nc2nc(-c3ccccc3)c(-c3ccccc3)[nH]2)cc1 | 23.1 µM [falling, single point] | -49.5 | 16.4 µM [falling, single point]

Reprinted at random: two entries already listed, in no set order.
SMILES | AC50 [1] | cell number change [%] | AC50 [2]
CCOC(=O)c1[nH]c2ccc(OCC)cc2c1NC(=O)CN1CCN(c2ccccn2)CC1 | 18.4 µM [rising, partial curve, poor fit] | -5.75 | 
C#CCOC(=O)Nc1cccn(Cc2c(Cl)cccc2Cl)c1=O |  | 13.9 | 
